Measured values as given in PubChem BioAssay AID2685 (National Center for Advancing Translational Sciences (NCATS), 2010).
Some of the results follow. These are further read-outs of the screen, such as a control signal, another cell line or another target. No call is given for them. The list favours compounds with an active or inconclusive main result. The note in brackets gives the kind of curve behind each potency; many fits are weak.

Experiment: qHTS Assay for Lipid Storage Modulators in Drosophila S3 Cells;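 on cell number change: cells counted by Cell Tracker Red CMTPX staining in the red channel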
Details: BODIPY lipid droplet fluorescence, 18-24 h; for cell number change: measured here: cell count max response, cells fed with added oleic acid
In short: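 Drosophila S3 cells loaded with oleic acid (400 uM, as added) and compounds at several concentrations; lipid droplets imaged by 488-nm laser-scanning cytometry, 500–530 nm intensity and object ratio to cell channel. Percent activity normalized to 20 uM Triacsin C.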

[1] = measured here: lipid fluorescence (Fed channel) AC50, cells fed with added oleic acid
[2] = measured here: cell number channel AC50, cells fed with added oleic acid

| Compound | cell number change | AC50 [1] | AC50 [2] |
| --- | --- | --- | --- |
| Cc1cccc(C)c1NC(=O)CN(c1ccccn1)S(=O)(=O)c1ccc(F)cc1 | 10% | 1.64 µM [rising, partial curve] |  |
| Cc1ccc(C(C#N)c2ccc(C(=O)c3ccc(F)cc3)cc2)cc1 (stereo unspecified) | -26% | 23.1 µM [falling, single point] |  |
| CCc1ccc(CN(C)C(=O)c2cc(S(=O)(=O)N3CCOCC3)ccc2N2CCCC2)cc1 | 36.2% |  | 29.1 µM [rising, single point] |
| O=C(c1ccccc1)N(Cc1cccc(Br)c1)C1CCS(=O)(=O)C1 (stereo unspecified) | -1.65% |  |  |
| CCC(Sc1nc2ccsc2c(=O)n1Cc1ccc(C(=O)O)cc1)C(=O)Nc1ccc(C)c(Cl)c1 (stereo unspecified) | -29.1% |  |  |
| Cc1cc(Br)ccc1OCc1nc(-c2cccnc2)no1 |  | 0.731 µM [rising, single point] | 2.59 µM [rising, partial curve] |
| Cc1ccc(C(=O)Nc2ncnc3sc4c(c23)CCCCC4)cc1 | -15.1% | 29.1 µM [rising, single point] |  |
| NC(=O)c1c(NC(=O)c2ccc(S(=O)(=O)N3CCOCC3)cc2)sc2c1CCCCC2 | 0.633% | 0.164 µM [rising, full curve] |  |
| CC(C)CCN(C(=O)CNC(=O)c1cccs1)C(C(=O)NC1CCCC1)c1ccncc1 (stereo unspecified) | 5.34% |  |  |
| COc1ccc(Cn2nnnc2CN2CCCCCC2)cc1 | -40.3% | 29.1 µM [falling, single point] | 29.1 µM [falling, single point] |
| COc1ccc(NS(=O)(=O)c2ccc(OC)c(N(C)S(=O)(=O)c3ccc(Cl)cc3)c2)cc1 | 7.67% | 18.4 µM [rising, single point] |  |
| c1ccc(CSc2ncnc3c2cnn3-c2ccccc2)cc1 | -5.92% | 6.51 µM [falling, single point] | 6.51 µM [falling, single point] |
| CCC(C(=O)OCC(=O)Nc1cccc(OC)c1)c1ccccc1 (stereo unspecified) | -20.3% | 0.146 µM [falling, full curve, poor fit] | 0.82 µM [falling, full curve, poor fit] |
| N#CCC(=O)Nc1nc(-c2ccc3c(c2)OCCO3)cs1 |  | 0.224 µM [rising, full curve] |  |
| NC(=O)CC(NC(=O)Cc1cccc2ccccc12)c1ccc(NC2CCN(Cc3ccccc3)CC2)c([N+](=O)[O-])c1 (stereo unspecified) | -0.971% | 29.1 µM [falling, single point] |  |
| CCOc1ccc(/C=C2\SC(=S)N(C(C(=O)O)c3ccccc3)C2=O)cc1OC (stereo unspecified) | -3.84% | 0.13 µM [falling, full curve, poor fit] |  |
